Results published in patent US20250129050A1, “SYNTHESIS OF A KIF18A INHIBITOR” (Amgen Inc., priority 2022, published 2025).
At least one compound was matched to its structure with a doubt left.

Test: Dynamic Vapor Sorption (DVS) moisture sorption with pre and post DVS XRPD
Type: physicochemical
Conditions: 80% relative humidity at 25° C. for 24 hours
Experimental: Moisture sorption data were collected using a DVS Endeavour. A sample size of about 30 mg was used. The temperature was 25° C. The relative humidity (RH) was held to 80% for 24 hours. Mass was recorded at the beginning and end of the experiment. Stability and Hygroscopicity Features of Crystalline Compound 6a-I as shown by Pre and Post DVS XRPD Experiment: Crystalline Compound 6a-I was exposed to 80% relative humidity at 25° C. for 24 hours using a DVS Endeavor instrument. The mass was recorded at the beginning and end of the exposure. […] Dynamic Vapor Sorption (DVS): The crystalline Compound 6a-I can be characterized by a DVS moisture sorption profile.

With `O=S(CCOCc1ccccc1)[O][Ca][O]S(=O)CCOCc1ccccc1` (centres unmarked) [Compound 6a-I, calcium 2-(benzyloxy)ethane-1-sulfinate 4/3 hydrate] the “mass change (water absorbed by weight)” value (DVS Endeavor, starting mass 32.3989 mg, ending mass 32.4479) was 0.15% and the hygroscopicity (DVS, hydrate) was “low in hygroscopicity”.
